Experimental data reported in patent publication US20260327250A1, “3-ETHYLAMINO-INDOLE DIMERS AS SEROTONERGIC AGENTS USEFUL FOR THE TREATMENT OF DISORDERS RELATED THERETO” (MINDSET PHARMA INC., priority 2022, published 2026).
Where a name gives a salt, the structure may show the parent alone.

Test system: Caco-2 cell monolayers
Test: Assessment of Caco-2 cell monolayer integrity
Format: in vitro ADME
Conditions: Lucifer Yellow; for LY LeakageA−B: A−B; for LY LeakageB−A: B−A

Structure (SMILES) | LY LeakageA−B | LY LeakageB−A
CC(C)NCC(O)COc1cccc2ccccc12 (stereo not shown) [Propranolol] | 0.50% | 0.43%
CC(C)N(CCc1c[nH]c2cccc(OC(=O)CCCC(=O)Oc3cccc4[nH]cc(CCN(C(C)C)C(C)C)c34)c12)C(C)C [Compound I-37, Bis(3-(2-(diisopropylamino)ethyl)-1H-indol-4-yl) glutarate dihydrochloride] | 0.45% | 0.64%
COc1cc2nc(N3CCN(C(=O)c4ccco4)CC3)nc(N)c2cc1OC [Prazosin] | 0.39% | 0.41%
CN(C)CCc1c[nH]c2cccc(OC(=O)CCCC(=O)Oc3cccc4[nH]cc(CCN(C)C)c34)c12 [Compound I-24, Bis(3-(2-(dimethylamino)ethyl)-1H-indol-4-yl) glutarate] | 0.75% | 0.66%
C[C@H]1O[C@@H](O[C@H]2[C@@H](O)C[C@H](O[C@H]3[C@@H](O)C[C@H](O[C@H]4CC[C@@]5(C)[C@H](CC[C@@H]6[C@@H]5C[C@@H](O)[C@]5(C)[C@@H](C7=CC(=O)OC7)CC[C@]65O)C4)O[C@@H]3C)O[C@@H]2C)C[C@H](O)[C@@H]1O [Digoxin] | 0.53% | 0.46%
